This is an account of results in publication PMC8279495, “Design, Synthesis, and Biological Evaluation of Boron-Containing Macrocyclic Polyamines and Their Zinc(II) Complexes for Boron Neutron Capture Therapy” (Journal of Medicinal Chemistry, 2021).

One data set has as its system HeLa S3 cells. Put plainly: Intracellular boron uptake by ICP–MS, HeLa S3 cells. In kind it is cell-based, human. The conditions noted are these: ratio of intracellular boron uptake, 30 μM, 24 h.
A further data set has as its system A549 cells. Put plainly: Intracellular boron uptake by ICP–MS, A549 cells. The conditions noted are these: ratio of intracellular boron uptake, 30 μM, 24 h. It counts as cell-based, human.

As for sodium mercaptoborate [compound 1], the “T/N ratio (HeLa S3/IMR90)” value with HeLa S3 cells amounted to 0.77. For the same compound, the “T/N ratio (A549/IMR90)” value with A549 cells was determined as 0.80.

For the compound `N[C@@H](Cc1ccc([10B](O)O)cc1)C(=O)O` [compound 2, L-4-boronophenylalanine], the “T/N ratio (HeLa S3/IMR90)” value in the data set with HeLa S3 cells came out at 3.00. In the data set on A549 cells, the “T/N ratio (A549/IMR90)” value turned out to be 2.90.
